Results are given in words; binding and its absence hold for the method and conditions named. Some results given as binding are weak or reduced against the parent protein; the word gives no strength.
Target: T1, soluble human FcRn (shFcRn) (human, UniProt P55899 24-297; P61769 21-119)
T1 construct: For crystallography it was expressed in CHOK1SV cells and deglycosylated with PNGaseF; biotinylated for phage selection; also called hFcRn/β2m; FcRn-biotin
Test: photo-cross-linking competition: sh-FcRn pre-incubated with 100 eq unlabeled peptide, then 2 eq biotinylated Bpa-516, UV 365 nm, biotin blot [Cont.]

By UniProt entry, the sequences of proteins in these tests, tags left out. Where a name states a change or a piece, a line headed by the entry shows the natural chain unless it says otherwise.
UniProt P55899: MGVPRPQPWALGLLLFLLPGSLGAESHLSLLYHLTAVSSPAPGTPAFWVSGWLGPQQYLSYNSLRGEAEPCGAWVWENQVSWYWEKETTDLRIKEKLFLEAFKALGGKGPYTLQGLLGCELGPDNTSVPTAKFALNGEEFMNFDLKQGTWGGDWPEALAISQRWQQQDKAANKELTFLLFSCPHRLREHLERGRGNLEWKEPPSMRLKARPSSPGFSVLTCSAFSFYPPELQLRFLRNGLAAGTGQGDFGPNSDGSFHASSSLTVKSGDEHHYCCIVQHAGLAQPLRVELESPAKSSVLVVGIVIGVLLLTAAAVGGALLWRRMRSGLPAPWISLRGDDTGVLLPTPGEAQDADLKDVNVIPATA

binding: binds
Binder: VMTCWWDQGFECAKL (the two C printed larger on the sheet (C4, C12)) [SYN516]
